The test can be described thus: qHTS Assay for Modulators of Lamin A Splicing. The note with it: HeLa LMNA splicing GFP/RFP minigene ratio, 48 h. Summed up:
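S3 HeLa stable clones carrying a lamin A-EGFP splicing minigene plus DsRed2 were seeded at 600 cells/well in Opti-MEM with 2% FBS, pin-dosed and incubated 48 h at 37°C. Acumen cytometry (488 nm) gave the GFP/RFP total-intensity ratio.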
(Quantitative high-throughput screening tests each substance at several concentrations.)

The mark [1] stands for this setting: measured here: RFP viability control channel.
[2] abbreviates: measured here: GFP splicing reporter channel.

This is an account of results in PubChem BioAssay AID1487 (National Center for Advancing Translational Sciences (NCATS), 2009).

As usually defined, the AC50 is the midpoint of the concentration-response curve, whichever way the signal moves.

The structures appear in SMILES notation. This is one part of the list. The main result of the screen is listed elsewhere. These columns were measured beside it and carry no call. Compounds called inactive in the main read-out are mostly missing here. Potencies come from curve fits of mixed quality, noted in brackets.

As to `CC1CCCCC12NC(=O)N(CC(=O)Nc1sc3c(c1C(N)=O)CCC3)C2=O` (stereo not given), under setting [1], the AC50 was 4.47 µM [falling, partial curve].
Consider `CCOC(=O)c1oc2ccc(S(=O)(=O)Nc3ccc4c(c3)n(C)c(=O)n4C)cc2c1C`, for which the AC50 under setting [1] was 12.6 µM [rising, partial curve, poor fit].
As to `CCCc1ccc(-c2cc(NC(=O)CSc3n[nH]c(N)n3)n(-c3ccccc3)n2)cc1`, the AC50 under setting [2] was 10 µM [rising, partial curve].
Regarding `O=C(CSc1nc2ccccc2c(=O)[nH]1)c1cccs1`, the AC50 under setting [1] was 35.5 µM [rising, single point].
Regarding `Cc1ccc(Cl)cc1N1CCN(C(=O)c2cc(S(=O)(=O)N3CCCCCC3)cn2C)CC1`, under setting [1], the AC50 was 11.2 µM [falling, partial curve, poor fit].
Consider `O=Nc1c(O)n(Cc2cccc(C(F)(F)F)c2)c2ccccc12`, for which the AC50 under setting [2] was 0.794 µM [falling, full curve, poor fit].
Take `COC(=O)c1ccc2c(c1)N(CC(=O)Nc1cccc(C(F)(F)F)c1)C(=O)c1ccccc1S2`: under setting [1], the AC50 was 5.62 µM [rising, single point].
With `CCOC(=O)CC(C#N)c1cn(C)c2ccccc12` (stereo not given), under setting [2], the AC50 was 6.31 µM [falling, single point].
Take `O=C(NCc1ccccc1Cl)c1ccc2c(c1)SC1=NS(=O)(=O)CCN12`: the AC50 under setting [2] was 10 µM [falling, partial curve].
For `CC(=O)O[C@H]1CSC[C@H]1NC(=O)c1ccccc1`, the AC50 under setting [2] is 4.47 µM [rising, full curve, poor fit].
For the compound `COc1ccc(NC(=O)C2CCCN(S(=O)(=O)c3ccc4c(c3)CCCN4C(C)=O)C2)cc1` (stereo not given), the AC50 under setting [2] was 20 µM [falling, single point].
On to `Cc1nc(N2CCCCC2)sc1C(=O)c1ccc(Cl)c([N+](=O)[O-])c1`, for which the AC50 under setting [1] is 12.6 µM [rising, single point].
For `ClC1(Cl)CC1CSc1ncn[nH]1` (stereo not given), the AC50 under setting [2] is 0.2 µM [rising, full curve, poor fit].
Take `Nc1c(CO)nnn1-c1ccccc1`: under setting [2], the AC50 is 35.5 µM [falling, single point].
Consider `O=S(=O)(Cc1ccccc1)Nc1ccc(Br)cn1`, for which, under setting [2], the AC50 is 0.00891 µM [rising, full curve].
For the compound `Cc1nc(-c2cccc(S(=O)(=O)N3CCC(C)CC3)c2)cs1`, the AC50 was 12.6 µM [rising, single point] under setting [2] and 17.8 µM [rising, single point] under setting [1].
Turning to `O=S(=O)(Nc1cccc(-c2ccc(N3CCCC3)nn2)c1)c1ccc(F)cc1F`, the AC50 runs as follows: under setting [2], 35.5 µM [falling, single point]; under setting [1], 3.98 µM [falling, partial curve, poor fit].
Consider `COc1ccc(-c2cn3nc(N4CCCC(C(=O)NCc5ccccc5C)C4)sc3n2)cc1` (stereo not given), for which, under setting [1], the AC50 was 12.6 µM [falling, partial curve].
Turning to `CC(=O)c1c(C)[nH]c(C(=O)Nc2c(C)n(C)n(-c3ccccc3)c2=O)c1C`, the AC50 under setting [2] was 0.631 µM [falling, full curve].
`COc1ccc(Cn2ccnc2SCC(=O)Nc2cc(C(F)(F)F)ccc2Cl)cc1`: the AC50 was 1 µM [rising, full curve, poor fit] under setting [2] and 15.8 µM [rising, partial curve, poor fit] under setting [1].
Consider `COc1ccc(CN=C2NN=C(c3cccc(OC)c3)CS2)cc1`, for which, under setting [2], the AC50 was 15.8 µM [falling, partial curve, poor fit].
As to `Cc1ccccc1-c1cc(Nc2ccccc2)ncn1`, the AC50 under setting [2] is 14.1 µM [falling, partial curve, poor fit].
Consider `c1ccc(CSc2nnc3c(n2)OC(c2ccco2)Nc2ccccc2-3)cc1` (stereo not given), for which the AC50 under setting [2] was 35.5 µM [rising, single point].
Regarding `O=C(/C=C/c1nc2ccccc2s1)N1CCCCCC1`, the AC50 under setting [2] is 2.51 µM [rising, partial curve, poor fit].
`Cc1[nH]n(-c2ccccc2)c(=O)c1/C=N/N1C(=O)c2ccc3c4c(ccc(c24)C1=O)CC3`: the AC50 under setting [1] is 35.5 µM [rising, single point].
In the case of `Cc1ccc(NC(=O)c2cc(S(=O)(=O)N3CCOCC3)c(Br)s2)cc1`, the AC50 is 12.6 µM [rising, single point] under setting [2] and 22.4 µM [rising, partial curve] under setting [1].
Regarding `Cc1cc(C(=O)NNCc2ccccc2)no1`, the AC50 is 2.24 µM [falling, single point] under setting [2] and 3.16 µM [falling, single point] under setting [1].
Regarding `O=C(O)C1CSC(c2coc3ccccc3c2=O)N1` (stereo not given), the AC50 under setting [1] was 11.2 µM [rising, partial curve].
Take `O=C(NCc1cccs1)c1cnc2ccccn2c1=O`: the AC50 under setting [1] is 0.00794 µM [falling, full curve].
In the case of `CC(C)Nc1ncnc2c1nnn2Cc1ccccc1`, the AC50 under setting [2] was 17.8 µM [rising, single point] and the half-maximal activity concentration (AC50) under setting [1] was 17.8 µM [rising, single point].
Regarding `Cc1ccc(/C=C/C(O)=C2/C(=O)N(C)C3(C)CC2c2ccccc2O3)cc1` (stereo not given), the AC50 reads like this: under setting [2], 11.2 µM [falling, partial curve]; under setting [1], 25.1 µM [falling, single point].
Regarding `O=S(=O)(Cc1ccccc1)Cc1cnc(Cl)s1`, the AC50 under setting [2] was 17.8 µM [falling, partial curve, poor fit] and the AC50 under setting [1] is 0.141 µM [falling, partial curve, poor fit].
Regarding `O=c1[nH]sc2ccccc12`, the AC50 reads like this: under setting [2], 11.2 µM [falling, single point]; under setting [1], 11.2 µM [falling, partial curve].
`O=C1Nc2ccc(Cl)cc2C12Nc1ccccc1-c1nnc(SCc3ccccc3F)nc1O2` (stereo not given): under setting [1], the AC50 is 35.5 µM [rising, single point].
With `CCCCCOC(=O)Nc1ccc(S(=O)(=O)Nc2cccc([N+](=O)[O-])c2)cc1`, under setting [1], the AC50 was 14.1 µM [rising, partial curve].
Consider `COc1ccccc1OCC(=O)NN=C(Cc1ccccc1)Cc1ccccc1`, for which the AC50 was 0.398 µM [falling, partial curve, poor fit] under setting [2] and 7.94 µM [rising, partial curve] under setting [1].
Turning to `Oc1ccc(/C=C/c2ccnc3ccccc23)cc1`, the AC50 reads like this: under setting [2], 7.94 µM [rising, partial curve]; under setting [1], 15.8 µM [rising, partial curve].
On to `COc1ccc(Oc2ncc3nc(-c4ccc(F)cc4)c(=O)n(C[C@H]4CCCO4)c3n2)cc1`, for which the AC50 under setting [2] is 11.2 µM [falling, partial curve].
Turning to `CC1=C(c2ccc(C)c(C)c2)S(=O)(=O)N=C1N1CCC(C(=O)Nc2cccc(F)c2)CC1`, the AC50 by setting is: under setting [2], 20 µM [falling, partial curve, poor fit]; under setting [1], 20 µM [falling, partial curve, poor fit].
In the case of `CN1CCN(C(=O)C23CCC(C)(c4nc5ccccc5nc42)C3(C)C)CC1` (stereo not given), the AC50 under setting [1] is 3.98 µM [falling, single point].
For the compound `COc1ccc(C(=O)Nc2ncc3c(n2)CC(C)CC3=O)cc1` (stereo not given), the concentration at half-maximal activity (AC50) by setting is: under setting [2], 0.0316 µM [falling, full curve, poor fit]; under setting [1], 0.0282 µM [falling, full curve, poor fit].
With `Cc1cccc(-n2nnnc2SCc2csc(-c3ccccc3)n2)c1`, the AC50 under setting [1] was 35.5 µM [rising, single point].
Consider `CC1=C/C(=N\N=C2\NC(=O)C(CC(=O)Nc3ccccc3F)S2)CC(C)(C)C1` (stereo not given), for which the AC50 under setting [2] was 0.02 µM [falling, full curve, poor fit].
Consider `Cc1cccc(OCC(=O)Nc2ccc(Cl)c(-c3nc4ccccc4[nH]3)c2)c1`, for which, under setting [1], the AC50 is 35.5 µM [rising, single point].
With `c1ccc2[nH]c(NCc3ccc4c(c3)OCO4)nc2c1`, the AC50 is 2.51 µM [falling, partial curve, poor fit] under setting [2] and 0.0708 µM [falling, full curve, poor fit] under setting [1].
With `CC(=O)c1cc(C#N)c(NCc2cc(-c3ccccc3)no2)nc1C`, the AC50 was 31.6 µM [falling, partial curve, poor fit] under setting [2] and 39.8 µM [falling, partial curve, poor fit] under setting [1].
In the case of `COc1ccc2ncc(S(=O)(=O)c3ccccc3)c(N3CCC4(CC3)OCCO4)c2c1`, the AC50 under setting [1] was 12.6 µM [rising, partial curve, poor fit].
`CCOc1ccc(CCNC(=O)c2cc3ccccn3n2)cc1OCC`: under setting [1], the AC50 is 22.4 µM [rising, single point].
As for `Cc1cc(N2CCN(c3ccc(F)cc3)CC2)nc(-c2ccccc2)n1`, the AC50 under setting [1] is 12.6 µM [rising, single point].
Take `CN(CCC#N)S(=O)(=O)c1ccc2[nH]cc(C(=O)NCCc3ccccc3)c(=O)c2c1`: the AC50 under setting [2] is 31.6 µM [rising, single point] and the half-maximal activity concentration (AC50) under setting [1] was 35.5 µM [rising, single point].
`Cc1ccccc1Nc1nnc(SCc2cc([N+](=O)[O-])cc3c2OCOC3)s1`: the AC50 by setting is: under setting [2], 11.2 µM [rising, single point]; under setting [1], 14.1 µM [rising, single point].
With `O=C(c1ccccc1)c1coc2ccc(O)c(Cl)c12`, the half-maximal activity concentration (AC50) by setting is: under setting [2], 15.8 µM [rising, single point]; under setting [1], 31.6 µM [rising, single point].
As for `Cc1ccc(N(Cc2cc3ccccc3[nH]c2=O)C(=O)c2cccs2)cc1`, under setting [1], the AC50 was 17.8 µM [rising, single point].
For `Cc1ccc(CN2CCC(c3cc(-c4cccs4)n[nH]3)CC2)cc1`, the AC50 runs as follows: under setting [2], 35.5 µM [falling, single point]; under setting [1], 35.5 µM [falling, partial curve, poor fit].
In the case of `O=C(NCc1ccc2c(c1)OCO2)c1ccc2snnc2c1`, under setting [1], the AC50 is 31.6 µM [rising, single point].
For the compound `Cc1nc(SCC(=O)c2ccccc2)n[nH]1`, the AC50 under setting [1] is 0.282 µM [falling, full curve, poor fit].
